PubChem BioAssay AID1259305 | Sanger Institute | 2017
Here is an unselected part of 160 reagents tested. In the full data, 96 (60%) were called active. 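Each call covers one siRNA sequence in one cell line only; gene-level confirmation needs agreement across siRNAs and lines.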 Unmarked entries are inactive. Viability is capped at 1. No sequences are given here. Not given: the amount of reagent, the time to read-out.

Test: 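Find kinase knock-downs that boost drug killing of colorectal cancer cells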 (follow-up of hits)
Cells: human DIFI colorectal cancer cells
Knock-down reagent: single siRNA against human genes
Conditions: BYL719 1 µM, cetuximab 5 µg/ml or trametinib 10 nM, or DMSO vehicle, added one day after transfection; exposure time not given
Measured: 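Survival relative to a non-targeting siRNA control pool averaged across replicates, with synergy scores per drug weighing the combination against siRNA only and drug only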
Scale: synergy score with BYL719 and synergy score with Cetuximab and synergy score with Trametinib: higher = stronger combined killing than expected; viability, knock-down alone: higher = more cells surviving knock-down; viability with Cetuximab: higher = more cells surviving knock-down plus drug
Active means: 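An siRNA counts as synergistic (synthetic lethal) when its synergy score tops 0.10 for at least one of the three drugs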

gene symbol	PubChem SID	synergy score with BYL719	synergy score with Cetuximab	synergy score with Trametinib	viability, knock-down alone	viability with Cetuximab
KCNH8	SID134236349	0.269 (active)	0.11	0.194	0.613	0.133
KCNH8	SID134236350	0.199 (active)	0.171	0.194	0.527	0.038
KCNH8	SID134236351	-0.00749	-0.00838	0.0575	0.807	0.328
KCNH8	SID134236352	0.107 (active)	0.167	0.228	1	0.229
COASY	SID56477723	0.00555	-0.0365	0.0594	0.742	0.33
COASY	SID56477724	0.102 (active)	-0.0289	-0.0173	0.862	0.37
COASY	SID56477725	0.0751 (active)	0.09	0.126	0.401	0.069
COASY	SID56477726	0.128 (active)	0.11	0.153	0.463	0.0733
PIM1	SID56476199	0.0589 (active)	0.0996	0.167	0.548	0.118
PIM1	SID56476200	0.0676 (active)	0.0804	0.154	1	0.316
PIM1	SID56476201	-0.0434 (active)	0.114	0.195	0.925	0.252
PIM1	SID56476202	0.06	0.0248	0.0794	0.876	0.322
MAP3K8	SID56475911	0.0392	0.0301	0.0311	1	0.366
MAP3K8	SID56475912	0.0934 (active)	0.0478	0.11	0.801	0.269
MAP3K8	SID56475913	0.0273 (active)	-0.0378	0.12	0.764	0.34
MAP3K8	SID56475914	0.145 (active)	0.183	0.249	0.827	0.144
PINK1	SID56476283	-0.244	0.0396	-0.0549	1	0.356
PINK1	SID56476284	0.179 (active)	0.189	0.262	0.764	0.114
PINK1	SID56476285	0.195 (active)	0.147	0.236	0.876	0.199
PINK1	SID56476286	0.011 (active)	0.0742	0.159	0.98	0.314
SYNCRIP	SID134270601	0.149 (active)	0.0296	0.142	0.658	0.231
SYNCRIP	SID134270602	-0.0209	0.00468	0.0417	1	0.391
SYNCRIP	SID134270603	0.143 (active)	0.11	0.224	0.673	0.156
SYNCRIP	SID134270604	0.031	0.0744	0.0387	0.961	0.306
CDKN2D	SID56475683	0.0463 (active)	0.208	0.384	0.827	0.12
CDKN2D	SID56475684	0.00563 (active)	0.126	0.0714	0.678	0.142
CDKN2D	SID56475686	0.0356 (active)	0.0767	0.218	0.96	0.303
CDKN2D	SID135611272	0.0457 (active)	0.0956	0.127	0.593	0.139
BRAF	SID56475867	0.0186	0.0233	0.0726	0.542	0.191
BRAF	SID56475868	0.129 (active)	0.0492	0.187	0.554	0.17
BRAF	SID56475869	0.161 (active)	0.182	0.298	0.922	0.183
BRAF	SID56475870	0.227 (active)	0.0368	0.146	0.915	0.325
MAPKAPK2	SID56475927	0.0352	0.0741	-0.0971	1	0.322
MAPKAPK2	SID56475928	-0.0115 (active)	0.107	0.094	0.904	0.251
MAPKAPK2	SID56475929	0.00199	0.0293	0.0449	0.916	0.334
MAPKAPK2	SID56475930	-0.0993	0.0337	-0.16	1	0.362
MARK3	SID56475931	-0.0155	0.0377	-0.0412	0.952	0.339
MARK3	SID56475932	-0.176	-0.0182	-0.104	1	0.414
MARK3	SID56475933	-0.125 (active)	0.26	0.0238	1	0.136
MARK3	SID56475934	-0.146 (active)	0.0392	0.127	0.765	0.264
CHD4	SID134247681	-0.0232	0.0276	0.048	0.285	0.0851
CHD4	SID134247682	0.115 (active)	0.127	0.187	0.608	0.114
CHD4	SID134247683	0.0523	0.0426	0.0386	0.783	0.267
CHD4	SID134247684	0.103 (active)	0.118	0.0552	0.959	0.262
MPP3	SID56478207	-0.124	0.0527	-0.0916	1	0.343
MPP3	SID56478208	-0.0629 (active)	0.0268	0.113	0.731	0.263
MPP3	SID56478209	0.288 (active)	0.243	0.348	0.752	0.0543
MPP3	SID56478210	0.0733 (active)	0.207	0.225	0.79	0.105
PRAG1	SID56478455	0.0396 (active)	0.0133	0.188	0.471	0.173
PRAG1	SID56478456	0.238 (active)	0.0141	0.158	0.794	0.3
PRAG1	SID56478457	-0.00192	0.00962	-0.136	1	0.386
PRAG1	SID56478458	0.0197	0.0471	0.0264	0.951	0.33
